{"source": "patent US20090047285A1", "about": "(ONCOMED PHARMACEUTICALS, published 2009)", "binders": {"B1": {"name": "122R5 (Fab, V domains shown)", "VH": "QVQLVESGGGLVQPGGSLRLSCAASGFTFSDNAIHWVRQAPGKGLEWVSAISSYGSGTYYADSVKGRFTISRDNSKNTLYLQMNSLRAEDTAVYYCARPGFQFSFTFMDIWGQGTLVTVSS", "VL": "DIELTQPPSVSVAPGQTARISCSGDALGSKYASWYQQKPGQAPVLVIYDDKNRPSGIPERFSGSNSGNTATLTISGTQAEDEADYYCQSWDGKSKVVFGGGTKLTVLG", "notes": "Human fAb from phage display; also called fAb122R5; lead fAb, 122R5"}}, "biological_target": "Notch3 (E403Q)", "assay": "survey of fAbs after phage display selection", "note": "These are yes or no findings as the source states them, for the method shown.", "data": [{"binder": "B1", "values": [{"measurement": "binding", "value": "no binding"}]}]}
